Literature values as cited in patent US20060211763A1, “Treatment with Statin and Omega-3 Fatty Acids and a Combination Product Thereof” (priority 2005, published 2006).

Structure (SMILES): CC(C)c1c(C(=O)Nc2ccccc2)c(-c2ccccc2)c(-c2ccc(F)cc2)n1CC[C@@H](O)C[C@@H](O)CC(=O)O [atorvastatin]
- Degradation in acidic environment: converted to their lactone forms
